PubChem BioAssay AID493014 (National Center for Advancing Translational Sciences (NCATS), 2011)
Screen size: about 340,000 compounds; about 170 (0.05%) were called active. Inconclusive results, whose numbers are uncertain, are shown with a selection of clear calls. Calls follow the shape of the dose curve; as a rule, active = well fitted inhibition curve with a large enough effect in the signal ratio, with a control signal flat (not every such curve was filed as active); inconclusive = small, poorly fitted or top-dose-only effect, or effect the other way, or a change in a side signal; inactive = flat fitted curve, though single readings scatter; the % refers to the signal ratio. A potency beside an inconclusive call is a rough fit, not a confirmed value.

Test: qHTS Assay to Find Inhibitors of Chronic Active B-Cell Receptor Signaling;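 as to activity change, negative = inhibition: plate controls were basal doxycycline-induced cells for no effect and cells given 10 µM MG132 for full effect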
Settings: ABC-DLBCL IkBa-CBG/CBR reporter, luminescence ratio (green luciferase fused to IkBa over red control in TMD8 lymphoma cells), 4 h; activity change, negative = inhibition: at 46.1 µM (top of the series) unless noted
Method in brief: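 Doxycycline induced both beetle luciferases in TMD8 lymphoma cells; IKK-driven degradation limits the IkappaBalpha-fused green signal, while red luminescence normalises for cell number and nonspecific effects. Compounds tested up to 46 uM, 4 hrs.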
Potency is read from the fitted curve at half-maximal effect.

SMILES	activity change, negative = inhibition	Potency
O=C(Cc1ccccc1)Nc1ccccc1C(=O)Nc1ccccc1	inconclusive: 0.694%	
COC(=O)Nc1sc(C(=O)N(C)C)c(C)c1C(=O)OC		inconclusive: 7.94 µM [falling, partial curve, poor fit]
NC(=O)c1cnn(-c2cc(Oc3ccccc3)ncn2)c1N	inconclusive: 26.2%	
Cc1cc(NC(=O)CCC(=O)N(Cc2ccco2)C(C(=O)NC2CCCCC2)c2cccs2)no1 (centres undefined)	inconclusive: 0.0593%	
O=C(O)c1ccc(N=NNc2cccc([N+](=O)[O-])c2)cc1		inconclusive: 3.98 µM [rising, partial curve, poor fit]
CC(=O)Nc1ccc(NC(=O)COC(=O)c2ccccc2SCC(=O)N2CCCC2)cc1	inconclusive: 0.124%	
CC(C)(C)OC(=O)C[C@@H]1C/C=C\C[C@H](CC(=O)N(CCO)Cc2ccccc2)C(=O)NC[C@H](c2ccccc2)OC1=O	inconclusive: 1.25%	
O=C(COC(=O)c1c2c(nc3ccccc13)CCCC2)c1ccc(Br)s1	inconclusive: 0.1%	
CC(C)NC(=S)N/N=C/c1ccccc1[N+](=O)[O-]		inconclusive: 35.5 µM [falling, single point]
O=C(N/N=C1/CC2C=CCC12)c1cccs1 (centres undefined)		inconclusive: 35.5 µM [falling, single point]
CN1C(=O)c2ccccc2Sc2ccc(NC(=O)c3ccc(C#N)cc3)cc21		inconclusive: 1 µM [falling, full curve]
CCOC(=O)NC(NC(=S)Nc1ccc(OCC)cc1)C(Cl)(Cl)Cl (centres undefined)	inconclusive: -0.181%	
COc1cccc(Oc2cn[nH]c2-c2ccc(OCC(=O)NN)cc2O)c1	inactive: -2.15%	
CCn1cc([N+](=O)[O-])c(C(=O)N2N=C(c3ccc(O)c(OC)c3)CC2c2ccccc2O)n1 (centres undefined)	inactive: -14.9%	
COc1ccccc1-c1nnc2sc(COc3ccccc3)nn12	inconclusive: -11.6%	
Cc1ccc(C(O)(COC(=O)C(C)C)COC(=O)C(C)C)c(O)c1	inactive: 11.7%	
Cc1ccc(NCC(=O)c2ccc([N+](=O)[O-])cc2)cc1		inconclusive: 17.8 µM [falling, single point]
O=C(c1cc2nc(-c3ccc(F)cc3)cc(C(F)(F)F)n2n1)N1CCCCC1c1cccnc1 (centres undefined)		inconclusive: 28.2 µM [falling, single point]
Cc1cc(=O)oc2cc(OS(C)(=O)=O)ccc12	inconclusive: 0.579%	
COc1cc(/C=C2\SC(=S)N(CC(=O)Nc3ccc(O)cc3)C2=O)cc(OC)c1OC	inconclusive: -7.03%	

SMILES	activity change, negative = inhibition	Potency
CCN(CC)c1ccc(/C=C(\C#N)C(N)=O)cc1	inconclusive: -2.71%	
COc1ccc(CN2CCNC(=O)C2CC(=O)N(C)CCCN2CCOCC2)cc1C (centres undefined)	inactive: -0.6%	
CCOc1ccc(NC(=O)c2ccc(N)cc2)cc1		inconclusive: 20.6 µM [falling, partial curve]
CCOc1cc(CNc2ccc3c(c2)OCCO3)cc(Br)c1OC		inconclusive: 23.1 µM [falling, partial curve, poor fit]
CS(=O)(=O)n1nc(-c2ccc(Cl)cc2)nc1N	inconclusive: 12%	
CN(C)/C=N/c1ncc(C(=O)c2ccc3ccccc3c2)s1	inconclusive: -27.3%	
O=C(CCC(=O)N1CCCC1)Nc1ccc(Cl)c(Cl)c1	inactive: 2.28%	
CCc1nnc(NC(=O)C2COc3ccccc3O2)s1 (centres undefined)		inconclusive: 18.4 µM [falling, partial curve]
COC(=O)c1c(NC(=O)c2ccco2)sc2c1CCN(C(C)C)C2	inconclusive: 1.6%	
O=c1oc2c(CN3CCOCC3)c(O)ccc2c2c1CCCC2	inconclusive: -0.609%	
Cc1cccc(CN2CCN(CC(=O)N3CCCC3)C2=O)c1	inconclusive: 1.28%	
Cc1ccc(C(C)C)cc1NC(=O)Nc1ccc([N+](=O)[O-])cc1		inconclusive: 11.2 µM [rising, partial curve, poor fit]
COc1cc2c3nnc(-c4ccccc4)c-3cn(Cc3ccc(F)cc3)c2cc1OC	inactive: -0.939%	
CN(C1CCCCC1)S(=O)(=O)c1ccc(NC(=O)c2ccc(Br)o2)cc1	inconclusive: -1.6%	
CC(=O)N(CCc1cccc(C)c1)Cc1cc2cc(C)ccc2[nH]c1=O	inactive: -1.03%	
O=C(CCN1C(=O)[C@@H]2Cc3ccccc3CN2C1=O)Nc1cccc(F)c1	inactive: -0.174%	
O=C(CCc1[nH]c2ccccc2c1Sc1ccccc1)NCCO	inconclusive: -5.78%	
CC(C)(C)NC(=O)CC(CC(=O)O)c1ccccc1 (centres undefined)	inconclusive: 11.6%	
O=C(CSc1nnc(-c2ccc(Cl)cc2)n1Cc1ccco1)Nc1ccc2c(c1)OCCO2	inconclusive: -6.32%	

Copied from the list.
In activity change, negative = inhibition, `CC(=O)N(CCc1cccc(C)c1)Cc1cc2cc(C)ccc2[nH]c1=O` reads inactive: -1.03%
In activity change, negative = inhibition, `O=c1oc2c(CN3CCOCC3)c(O)ccc2c2c1CCCC2` reads inconclusive: -0.609%
In activity change, negative = inhibition, `CC(C)(C)NC(=O)CC(CC(=O)O)c1ccccc1` (centres undefined) reads inconclusive: 11.6%
